This is one part of the list. The main result of the screen is listed elsewhere. These columns were measured beside it and carry no call. The list favours compounds with an active or inconclusive main result. Words in brackets tell the shape of the fitted curve; partial curves, single points and poor fits give uncertain potencies.
Experiment: qHTS Assay to Find Inhibitors of Chronic Active B-Cell Receptor Signaling
Conditions: ABC-DLBCL IkBa-CBG/CBR reporter, luminescence ratio (green luciferase fused to IkBa over red control in TMD8 lymphoma cells), 4 h
How it was run: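 TMD8 ABC-DLBCL cells carrying doxycycline-inducible green luciferase fused to IkappaBalpha plus unfused red luciferase were exposed to compounds (up to 46 uM) for 4 hrs at 37C. Activity came from the overlap-corrected green/red luminescence ratio.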

[1] = measured here: CBR red luminescence, cell number
[2] = measured here: IkBa-CBG green luminescence

Row | SMILES | AC50 [1] | AC50 [2]
1 | O=C(Nc1ccc(F)cc1)N1CCN2C(=O)c3ccccc3C12c1ccccc1 (stereo not drawn) | 16.4 µM [falling, single point] | 
2 | COC(=O)c1cc2nc(-c3ccc(OC)c(OC)c3)cc(C(F)(F)F)n2n1 | 10 µM [rising, single point] | 
3 | O=C(O)c1nn2cc(CCO)cnc2c1Cl | 14.1 µM [falling, single point] | 
4 | COc1ccc(F)cc1C(=O)C1CCCN(Cc2c[nH]c3ccccc23)C1 (stereo not drawn) | 7.08 µM [falling, partial curve] | 
5 | CN1/C(=c2/s/c(=C3/C(=O)N(c4ccccc4)NC3=Nc3ccccc3)n(C)c2=O)C(C)(C)c2ccccc21 | 6.51 µM [falling, single point] | 
6 | COc1ccccc1CN(Cc1cc2cc(C)cc(C)c2[nH]c1=O)Cc1nnnn1CC1CCCO1 (stereo not drawn) | 14.1 µM [falling, single point] | 
7 | COc1ccc(CNC(=O)COC(=O)c2cnccn2)cc1 | 1.03 µM [rising, full curve, poor fit] | 
8 | O=C(CC(Nc1ccc(F)cc1)c1ccccc1)c1ccccc1 (stereo not drawn) | 1.84 µM [falling, partial curve, poor fit] | 
9 | CCOc1cc(N2CCOCC2)c(OCC)cc1NC(=O)c1ccc2ncsc2c1 | 2.91 µM [rising, partial curve, poor fit] | 
10 | O=C(NCCN1CCOCC1)c1cccnc1SCc1ccccc1Cl | 2.51 µM [rising, partial curve, poor fit] | 
11 | CCCc1[nH]nc2c1C(C1CC=CCC1)C(C#N)=C(N)O2 (stereo not drawn) | 16.4 µM [falling, single point] | 
12 | COc1ccccc1NC(=S)N1CCCC1 | 7.31 µM [rising, partial curve] | 
13 | CN(C)/N=C/c1c(O)ccc2ccccc12 | 20.6 µM [rising, single point] | 
14 | COc1ccc(CN(C)C(=O)C(Cc2ccccc2)NC(=O)c2ccccc2)cc1F (stereo not drawn) | 20.6 µM [falling, partial curve] | 
15 | CN(C)c1cccc(/C=C(\C#N)c2ccccc2)c1 | 25.1 µM [falling, single point] | 22.4 µM [falling, single point]
16 | COc1cc(S(=O)(=O)n2ccc(C)n2)ccc1Cl | 11.2 µM [rising, partial curve] | 
17 | CN(CC(=O)Nc1ccc(F)cc1)C(=O)CSc1nncs1 | 1.78 µM [falling, partial curve] | 
18 | CCOC(=O)C(=O)/C(C#N)=C/Nc1ccccc1 | 6.51 µM [falling, single point] | 
19 | O=C(Nc1ccc(F)cc1)N(Cc1ccco1)Cc1cc2cc3c(cc2[nH]c1=O)OCO3 | 13 µM [falling, partial curve] | 9.2 µM [rising, partial curve, poor fit]
20 | COc1ccc(OCC(=O)Nc2sc3c(c2C(=O)NCC2CCCO2)CCC3)cc1 (stereo not drawn) | 17.8 µM [rising, partial curve, poor fit] | 
21 | CCOC(=O)N1CCN(C(=O)c2ccc(C#CC3(O)CCCCC3)cc2)CC1 | 18.4 µM [rising, single point] | 
22 | O=C(N/N=C/c1cccs1)c1ccc2ccccc2c1 | 15.8 µM [falling, single point] | 

Row | SMILES | AC50 [1] | AC50 [2]
23 | NS(=O)(=O)c1cccc(NC(=O)CSc2ncnc3ccccc23)c1 | 11.2 µM [falling, partial curve] | 
24 | CC(=C/c1ccccc1)/C=N/n1c(C)n[nH]c1=S | 35.5 µM [falling, single point] | 28.2 µM [falling, single point]
25 | COc1ccc(-c2coc3cc(O)cc(O)c3c2=O)cc1OC | 6.31 µM [rising, partial curve, poor fit] | 
26 | CC(=O)Oc1c(-c2ccco2)oc2ccccc2c1=O | 12.6 µM [falling, partial curve] | 
27 | CCOc1ccc(-c2nc3ccccc3c(=O)o2)cc1 | 4.47 µM [falling, partial curve] | 
28 | CCCC1(C(=O)O)NC(c2cccc(OC)c2O)C2C(=O)N(c3ccccc3)C(=O)C21 (stereo not drawn) | 20.6 µM [falling, single point] | 
29 | O=C(CN1C(=O)c2ccccc2C1=O)OCC(=O)c1ccccc1 | 14.6 µM [rising, partial curve, poor fit] | 
30 | COc1ccc(OC)c(CNC(=O)CCc2cn(C)c3ccccc23)c1 | 15.8 µM [falling, single point] | 
31 | Cc1ccc(C(=O)NNC(=O)C(C)Oc2ccc3ccccc3c2)o1 (stereo not drawn) | 23.1 µM [rising, partial curve, poor fit] | 
32 | COc1cccc2cc(C(=O)OCC(=O)N3CC(C)OC(C)C3)c(=O)oc12 (stereo not drawn) | 0.461 µM [falling, full curve, poor fit] | 
33 | O=C(N/N=C/c1ccc(OCc2ccccc2)cc1)c1ccc(O)cc1 | 2.24 µM [falling, partial curve, poor fit] | 
34 | CS(=O)(=O)Nc1ccc(C(=O)Nc2ccc3ccccc3c2)cc1 | 17.8 µM [falling, single point] | 
35 | O=C(NCC1CCCO1)C(=Cc1cccc([N+](=O)[O-])c1)C(=O)NCC1CCCO1 (stereo not drawn) | 18.4 µM [falling, partial curve] | 
36 | CCOC(=O)c1c(C)[nH]c(C(=O)OCC(=O)Nc2ccc(OCC)cc2)c1C | 10.3 µM [falling, single point] | 
37 | C#CCNC(=O)C1=C[C@H](c2coc3ccccc3c2=O)C[C@H](OCc2ccc(CO)cc2)O1 | 35.5 µM [falling, single point] | 
38 | Cc1cc(C)c(C#N)c(SCC(=O)N(CCC#N)c2ccc3c(c2)OCCO3)n1 | 6.51 µM [rising, full curve, poor fit] | 
39 | C[C@H]1CN=C(Nc2ccccc2)N1CCCC1CCCCC1 | 20 µM [falling, partial curve, poor fit] | 
40 | Cc1ccc(NC(=O)COC(=O)CCc2c(C)nc3ncnn3c2C)cc1C | 0.103 µM [rising, full curve, poor fit] | 
41 | CSc1ccccc1NC(=O)Nc1ccccc1 | 7.31 µM [falling, partial curve, poor fit] | 
42 | COc1cc(NC(=O)CN(c2cc(C)cc(C)c2)S(=O)(=O)c2c(C)[nH]c(=O)[nH]c2=O)cc(OC)c1 | 35.5 µM [falling, partial curve, poor fit] | 
43 | Cc1ccc(S(=O)(=O)/N=C2\C=C(Nc3cccc(C(=O)O)c3)C(=O)c3ccccc32)cc1 | 5.01 µM [falling, full curve, poor fit] | 
44 | O=C(Nc1nc2c(Br)cccc2s1)C1CC1 | 20 µM [falling, partial curve, poor fit] | 

Row | SMILES | AC50 [1] | AC50 [2]
45 | COc1cccc(NC(=O)COC(=O)C2CC(=O)N(c3ccc(C)cc3)C2)c1 (stereo not drawn) | 3.26 µM [rising, full curve] | 
46 | COc1ccc([C@H]2CC(=O)C=C(c3cccc4c3Oc3ccccc3S4)C2)cc1OC | 23.1 µM [falling, single point] | 7.31 µM [rising, partial curve, poor fit]
47 | CCOC(=O)CNC(=O)c1ccc(OCC(F)(F)F)cc1 | 0.631 µM [falling, partial curve, poor fit] | 
48 | O=C(Nc1ccc2nc(-c3ccccc3)[nH]c2c1)c1cccs1 | 23.1 µM [falling, partial curve, poor fit] | 
49 | COC(=O)c1cc(OC)c(OC)cc1NC(=O)c1ccc(OC)cc1 | 3.98 µM [rising, partial curve, poor fit] | 
50 | Nc1nc(SCC(=O)N2CCCc3ccccc32)n(-c2ccccc2)n1 | 32.6 µM [falling, single point] | 
51 | COc1ccc(NC(=S)Nc2ccccc2)cc1 | 2.82 µM [rising, partial curve] | 
52 | Nc1cc(N2CCCCC2)c([N+](=O)[O-])cc1Cl | 4.11 µM [rising, full curve] | 
53 | O=C(CSCc1c(Cl)cccc1Cl)Nc1ccc2c(c1)OCCO2 | 18.4 µM [falling, single point] | 
54 | OC(c1ccccc1)(c1ccc(F)cc1)C(c1ccccc1)N1CCOCC1 (stereo not drawn) |  | 28.2 µM [rising, partial curve, poor fit]
55 | CNc1sc(C(=O)c2ccccc2F)c(N)c1-c1nc2ccccc2s1 |  | 25.9 µM [falling, single point]
56 | COc1cc(N=Nc2c(C)n(C)n(-c3ccccc3)c2=O)ccc1N | 11.2 µM [falling, partial curve] | 
57 | N#CC1=C(N)N2C(=C(C#N)C1c1ccccc1)Sc1ccccc12 (stereo not drawn) | 0.58 µM [rising, full curve, poor fit] | 
58 | CC1CCCC(C)N1CC(O)COCc1ccccc1F (stereo not drawn) | 35.5 µM [rising, partial curve, poor fit] | 
59 | CC(C)c1ccc(NC(=O)c2sccc2-n2cccc2)cc1 | 12.6 µM [rising, partial curve] | 
60 | CCCc1nnc(NC(=O)C(CC)OC(=O)c2cc(C)nc3ccccc23)s1 (stereo not drawn) | 35.5 µM [falling, single point] | 
61 | Cc1nn(-c2ncc(C(F)(F)F)cc2Cl)c(=O)n1-c1c(F)cccc1F | 3.98 µM [rising, single point] | 
62 | CC(C)(C)OC(=O)CNC(=O)c1[nH]cnc1C(=O)NCCCCCNC(=O)OC(C)(C)C | 35.5 µM [falling, single point] | 
63 | CC(C)CCn1c(SCc2cccc(F)c2)nc2ccsc2c1=O | 35.5 µM [rising, single point] | 
64 | Cc1nc(SCc2ccc(Cl)cc2)ncc1C(=O)O | 7.08 µM [falling, partial curve] | 

Record cards, from the list above.
`CC(C)CCn1c(SCc2cccc(F)c2)nc2ccsc2c1=O` in the list: AC50 [1]: 35.5 µM [rising, single point]
`Nc1cc(N2CCCCC2)c([N+](=O)[O-])cc1Cl` in the list: AC50 [1]: 4.11 µM [rising, full curve]
`CC(C)(C)OC(=O)CNC(=O)c1[nH]cnc1C(=O)NCCCCCNC(=O)OC(C)(C)C` in the list: AC50 [1]: 35.5 µM [falling, single point]
